In paper PMC7862700:
This is a selection; strong and weak results do not stand in their true shares. For part of these data: At the low end of the ranking the order means little. Some of the results follow. For part of these data: The source does not settle which construct or isoform was used.

Assays:
ETS1 = molecular target: T1, ETS1 (UniProt P14921); test: DAPPL (digital affinity profiling via proximity ligation, sequencing); conditions: 10 mM Tris-HCl pH 7.5, 50 mM NaCl, 1 mM DTT, 4% glycerol, room temperature, 30 min; GST-TFs on glutathione beads, 16-mer random dsDNA library, 0.1% …; high values mean tight binding; double strand, one strand shown; scale: fold enrichment (6-mer frequency, TF over GST control)
T1 sequence: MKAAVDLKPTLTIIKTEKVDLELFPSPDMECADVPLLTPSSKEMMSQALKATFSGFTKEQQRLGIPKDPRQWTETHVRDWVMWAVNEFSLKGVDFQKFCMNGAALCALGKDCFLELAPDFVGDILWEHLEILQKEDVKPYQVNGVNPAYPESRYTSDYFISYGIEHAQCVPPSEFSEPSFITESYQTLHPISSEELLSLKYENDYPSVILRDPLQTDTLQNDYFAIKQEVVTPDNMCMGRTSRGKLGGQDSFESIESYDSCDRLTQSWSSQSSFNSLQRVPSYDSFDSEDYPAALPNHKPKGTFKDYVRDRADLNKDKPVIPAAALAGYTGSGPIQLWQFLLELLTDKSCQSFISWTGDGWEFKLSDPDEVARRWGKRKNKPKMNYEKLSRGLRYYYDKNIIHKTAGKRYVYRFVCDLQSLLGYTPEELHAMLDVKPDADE

GABPA = molecular target: T2, GABPA (UniProt Q06546); test: as above; conditions: 10 mM Tris-HCl pH 7.5, 50 mM NaCl, 1 mM DTT, 4% glycerol, room temperature, 30 min; GST-TFs on glutathione beads, 16-mer random dsDNA library, 0.1% …; high values mean tight binding; double strand, one strand shown; scale: fold enrichment (6-mer frequency, TF over GST control)
T2 sequence: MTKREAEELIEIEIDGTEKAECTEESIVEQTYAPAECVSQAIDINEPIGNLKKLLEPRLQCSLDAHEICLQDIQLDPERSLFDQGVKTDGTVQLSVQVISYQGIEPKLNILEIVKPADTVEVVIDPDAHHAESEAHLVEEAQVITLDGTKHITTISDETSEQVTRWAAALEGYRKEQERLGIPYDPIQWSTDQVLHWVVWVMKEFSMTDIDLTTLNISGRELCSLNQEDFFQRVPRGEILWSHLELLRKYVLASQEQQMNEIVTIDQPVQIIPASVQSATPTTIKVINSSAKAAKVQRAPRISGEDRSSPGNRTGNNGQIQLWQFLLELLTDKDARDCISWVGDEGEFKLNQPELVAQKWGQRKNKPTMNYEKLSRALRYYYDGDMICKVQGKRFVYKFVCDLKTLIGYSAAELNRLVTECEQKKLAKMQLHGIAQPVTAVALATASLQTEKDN

Row | Sequence | binding signal (ETS1) | binding signal (GABPA)
1 | TAACCT | 1.34 | –
2 | TTCGAA | 1.25 | –
3 | TAACAC | 1.25 | –
4 | CGTTAA | 1.17 | –
5 | ATGCAT | 1.11 | –
6 | GATTAT | 1.17 | –
7 | CGTTCG | 1.26 | –
8 | TACATT | 1.24 | –
9 | AATTCC | 1.95 | –
10 | GAATTC | 1.43 | –
11 | TCTAAT | 1.15 | –
12 | ACCCTA | 1.3 | –
13 | CACTCG | 1.17 | –
14 | TGACTT | 1.46 | 1.38
15 | TGCGTA | 1.12 | 1.06
16 | TATCTA | 1.26 | 1.35
17 | CATTCC | 1.29 | –
18 | TCTCGA | 1.4 | –
19 | ATACTG | 1.11 | –
20 | ACTTTC | 1.5 | 1.59
21 | ACTCTC | 1.48 | 1.41
22 | GAATCC | 1.12 | 1.08
23 | TATCGT | 1.15 | –
24 | ACGCTG | 1.14 | –
25 | TAAAGT | 1.2 | –
26 | ATAGTA | 1.13 | 1.19

2 entries drawn at random from the list so far, as already listed:
Row | Sequence | binding signal (ETS1) | binding signal (GABPA)
19 | ATACTG | 1.11 | –
12 | ACCCTA | 1.3 | –

Carrying on.

Row | Sequence | binding signal (ETS1) | binding signal (GABPA)
27 | CCCGGA | 2.74 | 2.61
28 | GACCTA | 1.18 | –
29 | CGTATT | 1.14 | 1.12
30 | TTGCCG | 1.07 | –
31 | CTTCGG | 1.42 | 1.58
32 | TACAAG | 1.02 | 0.987
33 | GTATTC | 1.36 | 1.26
34 | CGTCCC | 1.27 | 1.42
35 | GTTCCG | 1.82 | 1.64
36 | GAAATA | 1.5 | 1.48
37 | TGCTGA | 1.05 | 1.07
38 | TACTTG | 1.46 | –
39 | ATCTCC | 1.41 | 1.56
40 | TCGACT | 1.43 | 1.3
41 | AAGTCT | 1.21 | –
42 | GCTGTA | 0.972 | 1.15
43 | CTTGTC | 1.38 | –
44 | AAGGAA | 1.23 | 1.2
45 | ACCGTC | 1.15 | 1.26
46 | ATAAAC | 1.18 | –
47 | AGGAAA | 1.41 | 1.31
48 | GTCTTT | 1.16 | –
49 | CCCCCA | 1.2 | –
50 | GTAACT | 1.28 | 1.22
51 | TGGCTT | 1.28 | 1.33
